Experimental data from PubChem BioAssay AID504834 (National Center for Advancing Translational Sciences (NCATS), 2011).
Among all 320,000 compounds or so, about 22,000 (6.9%) were called active. The shares of active, inactive and inconclusive entries below differ from those in the screen. Calls come from the whole dose curve; as a rule, active = well fitted inhibition curve with a large enough effect; inconclusive = small, poorly fitted or top-dose-only effect, or another doubt; inactive = no such curve, though single readings can be large or run the other way. Where the call is inconclusive, the potency comes from a doubtful curve fit.
Potency is the fitted concentration of half-maximal effect.

Assay: Primary qHTS for delayed death inhibitors of the malarial parasite plastid, 96 hour incubation
Conditions: P. falciparum luciferase reporter growth; series mostly up to 28.7 µM
How it was run: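 Readout is luminescence from an integrated firefly luciferase in P. falciparum. Red cells, 2% hematocrit and 0.05% parasitemia final, were cultured with compound through two parasite generations (96 hours) at 37 C, 5% CO2.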
For CNc1snc(C)c1C(=O)OC(C)C(=O)Nc1ccc(F)cc1 (configuration not stated), the Potency was inconclusive: 18.5 µM [inhibitor, single point]. With Cn1nc(-c2ccccn2)nc2c(=O)n(C)c(=O)nc1-2 the Potency was active: 2.94 µM. In the case of Cc1ccccc1NC(=O)CCCC(=O)c1ccccc1, the Potency is reported as inconclusive: 3.7 µM [inhibitor, partial curve, poor fit]. With CC(C)(C)NC(=O)CN(Cc1ccc2c(c1)OCO2)C(=O)CNS(=O)(=O)c1ccc(F)cc1 the Potency was inconclusive: 5.86 µM [inhibitor, partial curve]. In the case of Cc1c(NC(=S)NC(=O)CSc2ccc(Cl)cc2)cccc1C(=O)O, the Potency is reported as inconclusive: 11.7 µM [inhibitor, partial curve]. For O=C(Cc1cccc2ccccc12)N1CCN(c2ncccn2)CC1, the Potency was “inactive”. In the case of O=C(OCn1nnc2ccccc2c1=O)c1ccc2ccccc2n1, the Potency is reported as “inactive”. In the case of CCNc1ccc(S(=O)(=O)N(C)C)cc1[N+](=O)[O-], the Potency is reported as inconclusive: 5.22 µM [inhibitor, partial curve, poor fit]. For O=c1nc2n(c3sc4c(c13)CCCC4)C(CBr)CS2 (configuration not stated), the Potency was inconclusive: 11.7 µM [inhibitor, partial curve, poor fit]. In the case of Cc1cc(Cl)ccc1NC(=S)NCC(C)C, the Potency is reported as “inactive”. For COCCNC(=O)C(OC(=O)C1=Cc2ccccc2OC1)C(C)C (configuration not stated), the Potency was inconclusive: 11.7 µM [inhibitor, partial curve]. For CC(=O)N1c2ccc(S(=O)(=O)N3CCCC(C(=O)NC4CCCC(C)C4C)C3)cc2CC1C (configuration not stated), the Potency was “inactive”. With CCC(=O)c1ccc(OCC(O)CNCCc2ccc(Cl)cc2)cc1 (configuration not stated) the Potency was inconclusive: 18.5 µM [inhibitor, single point]. For COc1ccc(CNC(=O)COC(=O)CN2C(=O)NC3(CCCC3)C2=O)cc1, the Potency was “inactive”. For CNc1ccc(Br)cc(C(=O)/C=C/c2ccc(OC)cc2OC)c1=O, the Potency was inconclusive: 11.7 µM [inhibitor, single point]. With Cc1cccc(N2CCN(C(=O)c3cccs3)CC2)c1C the Potency was active: 10.4 µM. In the case of COC(=O)CNC(=O)Cn1nc(C)c([N+](=O)[O-])c1C, the Potency is reported as “inactive”. With Cc1ccc(C2=NS(=O)(=O)N(C)C(C(=O)NC(C)c3ccccc3)=C2)cc1 (configuration not stated) the Potency was “inactive”. For CN(Cc1cnc2nc(N)nc(N)c2n1)c1ccc(C(=O)N[C@@H](CCC(=O)O)C(=O)O)cc1, the Potency was active: 1.69 µM. With Cc1cc(SCC(=O)NCC(c2cccs2)N2CCOCC2)c(C)cc1Br (configuration not stated) the Potency was inconclusive: 14.7 µM [inhibitor, partial curve, poor fit]. For O=C(CN1CCN(C(=O)c2ccccc2)CC1)Nc1cccc(S(=O)(=O)N2CCCC2)c1, the Potency was inconclusive: 10.4 µM [inhibitor, partial curve]. In the case of CC(C)n1cc(C(=O)N2CCCC(Nc3ccc(F)c(F)c3)C2)cn1 (configuration not stated), the Potency is reported as “inactive”. For O=C(Nc1ccncc1)C1CCN(S(=O)(=O)c2ccc(Cl)cc2)CC1, the Potency was inconclusive: 8.28 µM [inhibitor, partial curve, poor fit]. With CC(C)CC(NC(N)=O)C(=O)Nc1ccc(Oc2ccccc2)cc1 (configuration not stated) the Potency was inconclusive: 2.33 µM [inhibitor, partial curve, poor fit]. In the case of CC1CCCN(c2cc(N(C)CCO)c([N+](=O)[O-])c3nonc23)C1 (configuration not stated), the Potency is reported as inconclusive: 11.7 µM [inhibitor, single point]. For CC(C)(C)S(=O)(=O)/C(C#N)=N/Nc1ccc(S(C)(=O)=O)cc1, the Potency was inconclusive: 0.828 µM [inhibitor, full curve, poor fit]. For Cc1cc(C)c2c(c1)/C(=N\N=c1\sc3ccccc3n1C)C(=O)N2, the Potency was inconclusive: 2.08 µM [inhibitor, full curve]. With O=C(c1cc(Br)ccc1O)N1CCN(S(=O)(=O)Cc2ccccc2)CC1 the Potency was inconclusive: 11.7 µM [inhibitor, single point]. In the case of CCC(C)NC(=O)C1CCC(=O)N1CCc1ccccc1 (configuration not stated), the Potency is reported as “inactive”. In the case of O=C(Nc1cccc(C(F)(F)F)c1)C1CC(=O)N(CCc2ccccc2)C1 (configuration not stated), the Potency is reported as “inactive”. With CC(=O)c1cccc(N(C(=O)c2ccccn2)C(C(=O)NC2CCCCC2)c2ccccc2)c1 (configuration not stated) the Potency was active: 10.4 µM. In the case of OC(COc1cccc2ccccc12)CN1CCCC1 (configuration not stated), the Potency is reported as “inactive”. In the case of Cc1ccc(C(=O)NNc2ncnc3ccccc23)cc1, the Potency is reported as “inactive”. With CCc1nnc(NC(=O)CSc2nncc(=O)n2N)s1 the Potency was “inactive”. For N#C/C(=C\c1cccc([N+](=O)[O-])c1)c1ccccn1, the Potency was “inactive”. In the case of CC(=O)c1sc(NC(=O)CCS(=O)(=O)c2ccc(C)cc2)nc1C, the Potency is reported as “inactive”. With O=C(c1cc2ccccc2o1)N1CCN(S(=O)(=O)c2ccccc2)CC1 the Potency was inconclusive: 5.86 µM [inhibitor, partial curve]. With CSCc1ccc(C(=O)NC(C)c2ccc(-n3ccnc3)cc2)cc1 (configuration not stated) the Potency was inconclusive: 18.5 µM [inhibitor, single point]. In the case of CC(C)(C)SCCNC(=O)CN(c1ccc(F)c(Cl)c1)S(C)(=O)=O, the Potency is reported as inconclusive: 8.28 µM [inhibitor, partial curve]. For Cc1ccc(OCc2cc(C(=O)N(C)CC3CCOCC3)no2)cc1C, the Potency was inconclusive: 0.415 µM [inhibitor, full curve, poor fit]. With COc1ccc(S(=O)(=O)Cc2ccc(C(=O)NCc3ccccc3)o2)cc1 the Potency was inconclusive: 16.5 µM [inhibitor, single point]. With COc1ccc([C@H]2CC(=O)C=C(c3ccc(C)cc3)C2)cc1OC the Potency was inconclusive: 11.7 µM [inhibitor, partial curve, poor fit]. For CC1=CC(=Nc2c(C)n(C)n(-c3ccccc3)c2=O)C=C(C)C1=O, the Potency was inconclusive: 18.5 µM [inhibitor, single point]. In the case of Nc1ccc(O)c(-c2nc3ccccc3s2)c1, the Potency is reported as inconclusive: 18.5 µM [inhibitor, single point]. With CCOc1ccccc1C(=O)NCC(=O)NNC(=O)c1cccc(S(=O)(=O)Nc2ccc(OC)cc2)c1 the Potency was “inactive”. With CC(=O)c1ccc(OCc2cc(C(=O)NCC3CCCCO3)no2)cc1 (configuration not stated) the Potency was “inactive”. With CN1CCN(Cc2nc3ccccc3n2C)CC1 the Potency was inconclusive: 18.5 µM [inhibitor, single point].
